Patent US11725026B2, “Compositions and methods for inhibiting lactate dehydrogenase a activity” (Research Foundation for SUNY, priority 2019, dated 2023)
Entries after “also recorded” stand apart in the source; their conditions may differ. At least one peptide structure holds a part that was inferred or is arguable (an end, a ring closure or a residue). Where a SMILES comes first, the peptide text is derived from it.

Tests used:
HEK293 cells = assay: Apoptosis / cell death in control HEK293 cells; type: cell-based, human
LDHA (pTyr10-LDHA) = molecular target: T1, LDHA (pTyr10-LDHA) (Homo sapiens, UniProt P00338); assay: LDHA activity in cells by pTyr10-LDHA immunoblot; type: cell-based
T1 construct: a panel of cancer cell lines were immunoblotted to observe levels of endogenous FLCN and pTyr10-LDHA; endogenous in cells; host or cells: Caki-1, HEK293, PC3, A549 and other human cancer cell lines
Text: The supernatant was then transferred to a fresh microtube.

UOK257 cells = assay: Seahorse metabolic assay (extracellular acidification rate); type: cell-based, human; conditions: UOK257 cells treated 2 h with increasing doses of peptide, n=6
LDHA [1] = molecular target: T2, LDHA (Homo sapiens, UniProt P00338); assay: Fluorescence anisotropy binding of Rhodamine-B-labeled FLCN peptides to recombinant LDHA; conditions: determined by anisotropy
T2 construct: a complex of FLCN-10 peptide with full-length recombinant LDHA; 6xHis (leader of vector pRSET-A) (N); made in house; host or cells: E. coli BL21 (DE3)
Protocol: LDHA at the indicated concentrations was incubated on ice in 50 mM Tris pH 7.2, 150 mM NaCl, 1 mM TCEP, 4 mM MgCl2 with […] labelled FLCN peptide for 30 min.
Fluorescence anisotropy was measured using a SpectraMax 3 equipped with rhodamine fluorescence polarization module (lex\lem.535 nm/595 nm). Curve fitting was done in KaleidaGraph 4.0.
LDHA at the indicated concentrations was incubated on ice in 50 mM Tris pH 7.2, 150 mM NaCl, 1 mM TCEP, 4 mM MgCl2 with […] Rhodamine-B-labeled FLCN peptide for 30 min. Fluorescence anisotropy was measured in triplicate using a SpectraMax i3 equipped with rhodamine fluorescence polarization module (lex\lem.535 nm/595 nm). Curve fitting was done in KaleidaGraph 4.0.

LDHA [2] = molecular target: T2, LDHA; assay: LDH activity assay (MAK066) with recombinant LDHA; type: biochemical; conditions: recombinant LDHA pre-incubated with peptide
LDHA [3] = molecular target: T2, LDHA; assay: LDHA kinetics and inhibition assay; type: biochemical
ccRCC cell lines = assay: Apoptosis / cell death in ccRCC renal cell lines (cleaved PARP/caspase-3 immunoblot, Annexin V/propidium iodide flow cytometry); type: cell-based, human
[4] = test system: renal tumor tissue and adjacent normal kidney-tissue from a BHD patient; assay: Ex vivo peptide treatment of BHD patient renal tumor and adjacent normal tissue; set-up: species or system human; conditions: immunofluorescence and immunoblot (phospho-Tyr10-LDHA), BHD tissues
Protocol: Tumor tissues from the BHD patient were obtained with written informed consent from the Department of Urology at SUNY (State University of New York) Upstate Medical University. At the time of partial nephrectomy, which was done with <15 min of renal ischemia, BHD tumors were dissected into 3-5 mm^3 pieces and cultured on a presoaked gelatin sponge (Johnson & Johnson) in 24-well plates containing 2 ml RPMI-1640 with 10% FBS, antibiotic/antimycotic solution. Tissues were cultured at 37° C. for 16 hr, followed by the addition of the indicated concentrations of FLCN-10-Rhod-B and further incubation at 37° C. for 2 hr.
Tumor and adjacent normal renal tissue from the BHD patient were obtained with written informed consent on an Institutional Review Board (IRB)-approved protocol from the Department of Urology at SUNY Upstate Medical University. At the time of partial nephrectomy, which was done with <15 min of renal ischemia, BHD tumors were dissected into 3- to 5-mm^3 pieces and cultured on a presoaked gelatin sponge (Johnson & Johnson) in 24-well plates containing 2 ml RPMI-1640 with 10% FBS and antibiotic/antimycotic solution. Tissues were cultured at 37° C. for 16 h, followed by the addition of the indicated concentrations of FLCN-10-Rhod-B and further incubation at 37° C. for 2 h. […]

SMILES | time- and dose-dependence of apoptosis / cell death (HEK293 cells; HEK293 cells, 0.1 μM or 1 μM, Annexin V/propidium iodide flow cytometry) | induction of apoptosis (HEK293 cells; control HEK293 cells) | LDHA activity in ccRCC cell lines (LDHA (pTyr10-LDHA); ccRCC cell lines treated with FLCN-10 peptide) | LDHA activity in HEK293 cells (LDHA (pTyr10-LDHA); control HEK293 cells, 2 h treatment) | reduction of LDHA activity in panel of glycolytic tumor cell lines (LDHA (pTyr10-LDHA); pTyr10-LDHA immunoblot, panel of glycolytic tumor cell lines) | extracellular acidification rate (ECAR) (UOK257 cells) | binding to LDHA (in words) (LDHA [1]) | inhibitory effect on LDHA activity (in words) (LDHA [2]) | potency compared to LDHA inhibitor FX11 (LDHA [3]; IC50 measurements, compared with FX11) | mode of LDHA inhibition (LDHA [3]; Lineweaver-Burke plot of enzyme kinetics) | time- and dose-dependence of apoptosis / cell death (ccRCC cell lines; 0.1 μM or 1 μM, Annexin V/propidium iodide flow cytometry) | induction of apoptosis / cell death (ccRCC cell lines; 1 μM, 1 or 2 h) | LDHA inhibition ex vivo [4] | activity against LDHA in Caki-1 cells (LDHA (pTyr10-LDHA); Caki-1 cells, pTyr10-LDHA immunoblot)
CSCC[C@H](NC(=O)[C@H](CCCNC(=N)N)NC(=O)[C@H](CCC(N)=O)NC(=O)[C@H](C)N)C(=O)N[C@@H](CC(N)=O)C(=O)N[C@H](C(=O)N[C@@H](C)C(=O)N[C@@H](Cc1ccccc1)C(=O)N[C@H](C(=O)N1CCC[C@H]1C(=O)O)[C@@H](C)O)[C@@H](C)O [FLCN-10] (H-AQRMNTAFTP-OH; N-terminus and C-terminus assumed) | not HEK293 cells | not observed; also recorded: did not observe any apoptosis | reduction of LDHA activity; also recorded: decrease in LDHA activity | LDHA inhibition | capable of reducing LDHA activity | modest decrease in ECAR | bound tightly to LDHA; also recorded: greatly enhanced binding | strong inhibitory effect on LDHA activity; also recorded: can inhibit LDHA | greatly improved potency | non-competitive inhibitor; also recorded: uncompetitively inhibits; also recorded: uncompetitive inhibitor | induced early apoptosis in a time- and dose-dependent manner; also recorded: induced cell death in a dose-dependent manner | induction of apoptosis after two hours; also recorded: enhanced cell death | LDHA inhibition is evident; also recorded: reduction in phospho-Tyr10-LDHA | –
C[C@H](N)C(=O)N[C@@H](CCC(N)=O)C(=O)N[C@@H](CCCNC(=N)N)C(=O)N[C@@H](C)C(=O)N[C@@H](CC(N)=O)C(=O)N[C@H](C(=O)N[C@@H](C)C(=O)N[C@@H](Cc1ccccc1)C(=O)N[C@H](C(=O)N1CCC[C@H]1C(=O)O)[C@@H](C)O)[C@@H](C)O [FLCN-10A] (H-AQRANTAFTP-OH; N-terminus and C-terminus assumed) | – | – | – | – | – | – | – | – | – | – | – | – | – | no activity against LDHA
